Measured values published in publication PMC9174887.
Results are given in words; binding and its absence hold for the method and conditions named. Binding seen in cells or lysates may run through a third protein. Sequences can lack the tags named with a protein.

Target: T1, HA-tagged VHH_(mASC) (JT-01-A09), expressed in HEK 293T cells (alpaca)
T1 sequence (VHH): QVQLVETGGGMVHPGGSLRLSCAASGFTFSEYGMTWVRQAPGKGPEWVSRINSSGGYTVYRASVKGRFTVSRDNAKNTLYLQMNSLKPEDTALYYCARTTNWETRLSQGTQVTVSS
Test: co-IP; LUMIER assay: lysates of co-transfected HEK 293T cells; HA-tagged VHH captured on plates coated with anti-HA.11, 4°C, 3 h; 50 mM Hepes pH 7.9, 150 mM NaCl, 2 mM EDTA, 0.5% Triton X-100, 5% glycerol; co-precipitated Renilla luciferase activity normalised to input

Row | Substance | binding
1 | pyrin domain of mouse NLRP3 fused to Renilla luciferase (domain or fragment) | no binding
2 | pyrin domain of human ASC fused to Renilla luciferase (domain or fragment) | no binding
